# According to patent US11925695B2, “Methods for making ultrasound contrast agents” (Lantheus Medical Imaging, Inc., priority 2016, dated 2024):
# Test: Calcium and magnesium level in individual lipid, lipid blend and solvent by ICP-MS
# Type: physicochemical
# Conditions: Determined by ICP-MS, ppm = μg/g
Compound,Ca^+2 level,Ca^+2 level (mono sodium salt) [ppm],further results
"CCCCCCCCCCCCCCCC(=O)OC[C@H](COP(=O)(O)O)OC(=O)CCCCCCCCCCCCCCC [DPPA, 1,2-dipalmitoyl-sn-glycero-3-phosphatidic acid]",19 ppm,,
"CCCCCCCCCCCCCCCC(=O)OC[C@H](COP(=O)([O-])OCC[N+](C)(C)C)OC(=O)CCCCCCCCCCCCCCC [DPPC Lot 1, 1,2-dipalmitoyl-sn-glycero-3-phosphatidylcholine]",Not detected,,Mg^+2 level: Not detected
"OCC(O)CO [Glycerol, glycerol]",0.7 ppm,,
"CCCCCCCCCCCCCCCC(=O)OC[C@H](COP(=O)([O-])OCC[N+](C)(C)C)OC(=O)CCCCCCCCCCCCCCC [DPPC Lot 2, 1,2-dipalmitoyl-sn-glycero-3-phosphatidylcholine]",7 ppm,,
"CC(O)CO (centres unmarked) [Propylene glycol, propylene glycol]",Not detected,,
"N-(methoxy polyethylene glycol 5000 carbamoyl)-1,2-dipalmitoyl-sn-glycero-3-phosphatidylethanolamine, mono sodium salt [MPEG5000-DPPE (high Ca^+2) Lot 2]",,520,Mg^+2 level (mono sodium salt): 110 ppm
"N-(methoxy polyethylene glycol 5000 carbamoyl)-1,2-dipalmitoyl-sn-glycero-3-phosphatidylethanolamine, mono sodium salt [MPEG5000-DPPE (high Ca^+2) Lot 1]",,980,Mg^+2 level (mono sodium salt): 150 ppm
"N-(methoxy polyethylene glycol 5000 carbamoyl)-1,2-dipalmitoyl-sn-glycero-3-phosphatidylethanolamine, mono sodium salt [MPEG5000-DPPE (low Ca^+2)]",,4,
